Values from PubChem BioAssay AID1259405 (NCATS, 2018).

- Test: 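Mouse-designed siRNAs used to find CHO productivity engineering targets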 (primary screen)
- System: Chinese hamster CHO-K1 ovary cells with stable secreted eGFP expression
- Reagent: single siRNA against mouse genes, 0.8 pmol siRNA per well (2 µl of 400 nM stock)
- Time to read-out: 3 days
- Measurement: 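Per-well intracellular GFP measured by laser scanning cytometry, plus viability from ATP luminescence, each relative to plate median of non-targeting control wells, in %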
- Scale: GFP, % of control: higher = more GFP per well, higher productivity; viability (ATP), % of control: higher = more viable cells (more ATP)
- Hit rule: 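a knock-down is called active if GFP reaches 120% or more of non-targeting control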
Shown is an unselected part of about 50,000 deposited reagents. About 4,000 of all reagents (8%) count as active. 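Mouse siRNA library applied to hamster cells; one well for each siRNA.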 Unmarked entries are inactive. The numbers tell different reagents against one gene apart. No sequences are given here.

| Gene | reagent | GFP, % of control | viability (ATP), % of control |
| --- | --- | --- | --- |
| Paox | 1 | 83.6 | 59.3 |
| Paox | 2 | 67.9 | 50.1 |
| Paox | 3 | 88.5 | 73.1 |
| Gal3st1 | 1 | 55.7 | 90.3 |
| Gal3st1 | 2 | 105 | 76.4 |
| Mis12 | 1 | 64.7 | 53 |
| Mis12 | 2 | 42.3 | 73.3 |
| Mis12 | 3 | 65.3 | 60.2 |
| Sprr2a1 | 1 | 82.4 | 48.1 |
| Sprr2a1 | 2 | 87.3 | 105 |
| Sprr2a1 | 3 | 141 (active) | 131 |
| Bend6 | 1 | 96.6 | 94.2 |
| Bend6 | 2 | 53.9 | 42.6 |
| Bend6 | 3 | 59.5 | 60.7 |
| Csnk2a1 | 1 | 62.6 | 68.3 |
| Prdx6 | 1 | 77.3 | 86.2 |
| Prdx6 | 2 | 73.9 | 64.5 |
| Prdx6 | 3 | 86.8 | 70 |
| 4930550C14Rik | 1 | 36.5 | 49.3 |
| 4930550C14Rik | 2 | 89.7 | 71 |
| 4930550C14Rik | 3 | 78.8 | 83.1 |
| Vax1 | 1 | 84.9 | 78.9 |
| Vax1 | 2 | 62.8 | 72.8 |
| Sc5d | 1 | 52.8 | 97.2 |
| Sc5d | 2 | 87.4 | 88.7 |
| Sc5d | 3 | 46.6 | 69.1 |
| Nek9 | 1 | 63.1 | 73.7 |
| Msi1 | 1 | 43.3 | 64.9 |
| Msi1 | 2 | 83.2 | 60.4 |
| Msi1 | 3 | 69.8 | 75.1 |
| Matn2 | 1 | 82.3 | 125 |
| Matn2 | 2 | 64.2 | 67.9 |
| Snrnp200 | 1 | 96.9 | 79.9 |
| Snrnp200 | 2 | 115 | 90.2 |
| Snrnp200 | 3 | 96.3 | 85.8 |
| Slc15a2 | 1 | 60 | 64.8 |
| Slc15a2 | 2 | 43.9 | 67 |
| Slc15a2 | 3 | 112 | 86.1 |
| Paqr9 | 1 | 56.4 | 61.4 |
| Paqr9 | 2 | 73.4 | 78.7 |
| Paqr9 | 3 | 55.9 | 79.7 |
| Nab2 | 1 | 65.7 | 85.2 |
| Nab2 | 2 | 77.2 | 94.5 |
| Nab2 | 3 | 85.1 | 101 |
| Polr1c | 1 | 58 | 64.2 |
| Polr1c | 2 | 62.8 | 86.4 |
| Polr1c | 3 | 29.9 | 49.7 |
| Atp2a3 | 1 | 95.2 | 89.9 |
| Atp2a3 | 2 | 61.6 | 81.7 |
| Atp2a3 | 3 | 47.6 | 84.9 |
| Dlc1 | 1 | 76.6 | 41.6 |
| Dlc1 | 2 | 35.3 | 26.4 |
| Dlc1 | 3 | 38.4 | 54.1 |
| Dlc1 | 4 | 86.7 | 78.3 |
| Dlc1 | 5 | 96.7 | 95.3 |
| Dlc1 | 6 | 63.2 | 63.1 |
| 1500015L24Rik | 1 | 88.7 | 76.9 |
| 1500015L24Rik | 2 | 107 | 75.8 |
| 1500015L24Rik | 3 | 59 | 71.8 |
| Mkln1 | 1 | 46.5 | 39 |
| Mkln1 | 2 | 77 | 80.8 |
| Mkln1 | 3 | 57.7 | 48.3 |
| Setmar | 1 | 110 | 122 |
| Setmar | 2 | 60.1 | 55.4 |
| Ltb4r2 | 1 | 24 | 37.4 |
| Ltb4r2 | 2 | 52.5 | 67.5 |
| Ltb4r2 | 3 | 61.6 | 75 |
| Ppp5c | 1 | 73.5 | 102 |
| Ppp5c | 2 | 73.7 | 79 |
| Ppp5c | 3 | 98.8 | 95.3 |
| H1f7 | 1 | 98.2 | 91.9 |
| H1f7 | 2 | 81.8 | 53.1 |
| H1f7 | 3 | 85.2 | 141 |
| Phex | 1 | 110 | 90.7 |
| Phex | 2 | 64.1 | 65.1 |
| Phex | 3 | 51.5 | 57.3 |
| Rxra | 1 | 29.3 | 37.6 |
| Rxra | 2 | 97.6 | 78 |
| Rxra | 3 | 81.8 | 86.1 |
| Itlnb | 1 | 68.8 | 67.8 |
| Itlnb | 2 | 72.7 | 53.2 |
| Dip2b | 1 | 79.7 | 71.3 |
| Dip2b | 2 | 74.9 | 60.8 |
| Dip2b | 3 | 89 | 80.2 |

An excerpt from above, limited to “GFP, % of control”.
4930550C14Rik #3 = 78.8
Vax1 #1 = 84.9
Vax1 #2 = 62.8
Sc5d #1 = 52.8
Sc5d #2 = 87.4
Sc5d #3 = 46.6
Nek9 = 63.1
Msi1 #1 = 43.3
